The list shows a part of the results. Shown are side measurements of this screen, not its main read-out; they come without a call. The list favours compounds with an active or inconclusive main result. Words in brackets tell the shape of the fitted curve; partial curves, single points and poor fits give uncertain potencies.
Experiment: qHTS Assay for Lipid Storage Modulators in Drosophila S3 Cells;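 as to cell number change: cells counted by Cell Tracker Red CMTPX staining in the red channel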
Conditions: BODIPY lipid droplet fluorescence, 18-24 h; for cell number change: measured here: cell count max response, cells fed with added oleic acid
Method in brief: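 Laser-scanning cytometry quantifies lipid droplet accumulation (500–530 nm total intensity; droplet/cell object ratio) in oleic acid-fed (400 uM added) Drosophila S3 cells treated with a concentration series. 20 uM Triacsin C defined 100% inhibition.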

[1] = measured here: lipid fluorescence (Fed channel) AC50, cells fed with added oleic acid
[2] = measured here: cell number channel AC50, cells fed with added oleic acid

Row | SMILES | cell number change [%] | AC50 [1] | AC50 [2]
1 | S=C(Nc1ccccc1)N1CCc2ccccc21 | 15 | 23.1 µM [rising, single point] | –
2 | COCCN(C(=O)c1csnn1)C(C(=O)NC1CCCCC1)c1ccc(C)cc1 (configuration not stated) | -14.3 | 6.51 µM [rising, single point] | –
3 | COc1ccc(CN2CCN(c3ncccn3)CC2)c(C)c1C | -24.4 | – | 0.0651 µM [falling, full curve, poor fit]
4 | COc1ccccc1NC(=S)N(Cc1ccco1)Cc1cc2cc(C)ccc2[nH]c1=O | 5.77 | 2.31 µM [rising, single point] | –
5 | CCCCN(C(=O)c1cc(S(=O)(=O)N2CCCCCC2)ccc1OC)c1c(N)n(CCC)c(=O)[nH]c1=O | – | 6.51 µM [rising, single point] | 5.8 µM [rising, partial curve]
6 | CN1CCN(C(=O)C2=C[C@@H](c3ccc4c(c3)OCO4)C[C@@H](OCc3ccc(CO)cc3)O2)CC1 | -14.6 | 25.9 µM [falling, single point] | –
7 | CN(CCNC(=O)CCNC(=O)Cn1ccc2ccccc2c1=O)Cc1ccccc1 | -30.9 | 29.1 µM [falling, single point] | 23.1 µM [falling, single point]
8 | Cc1ccc(S(=O)(=O)N(CC(=O)Nc2ccc(C)c(Cl)c2)C(=O)N2CCN(C)CC2)cc1 | -19.3 | 11.6 µM [falling, partial curve, poor fit] | –
9 | COc1ccc(NC(=O)C2CCCNC2=O)cc1 (configuration not stated) | 27.6 | – | –
10 | Cc1cnc([N+](=O)[O-])n1CCOC(=O)NC(=O)c1c(F)cccc1F | 121 | – | 29.1 µM [rising, partial curve, poor fit]
11 | CN(CC(=O)Nc1ccc(S(=O)(=O)N2CCCC2)cc1)Cc1c(F)cccc1Cl | 20.8 | – | 0.146 µM [rising, full curve, poor fit]
12 | O=C(N/N=C/c1cccc([N+](=O)[O-])c1)c1cnccn1 | 46.8 | – | 29.1 µM [rising, single point]
13 | Cc1ccc(S(=O)(=O)Nc2cccc(C(=O)NCc3ccccn3)c2)cc1F | 28.9 | 3.66 µM [rising, full curve] | 1.3 µM [rising, full curve, poor fit]
14 | CCC(=O)Nc1nnc(Cc2ccccc2)s1 | -2.43 | 29.1 µM [rising, single point] | –
15 | Cc1cccnc1NC(=O)c1ccco1 | – | – | 0.461 µM [falling, single point]
16 | CCOc1ccccc1NC(=O)NC1CCCCCCC1 | -3.76 | 0.0206 µM [falling, full curve, poor fit] | –
17 | COc1ccccc1OCC(=O)NCCS(=O)(=O)N1CCN(c2ccccc2)CC1 | 36.7 | – | 29.1 µM [rising, single point]
18 | Cc1ccc(OCCC(=O)OCC(=O)N2c3ccccc3CC2C)cc1 (configuration not stated) | -45 | 29.1 µM [falling, single point] | 0.58 µM [falling, full curve]
19 | COc1ccccc1N1CCN(S(=O)(=O)c2cc(-c3cc(C)no3)ccc2C(C)C)CC1 | 24.5 | 29.1 µM [rising, single point] | –
20 | CCN(CC(=O)Nc1ccc(NC(C)=O)cc1)C(=O)COc1ccc2ccccc2c1 | – | – | 4.61 µM [rising, partial curve, poor fit]
21 | NC(=NCCc1c[nH]c2ccccc12)NC(=O)c1ccc(F)cc1 | 9.16 | 0.651 µM [rising, single point] | –

Row | SMILES | cell number change [%] | AC50 [1] | AC50 [2]
22 | N#CCCn1nnc2ccccc21 | 22.4 | 0.731 µM [rising, single point] | 0.461 µM [rising, full curve]
23 | COc1cc(/C=C/C(=O)Nc2nc3ccc(S(=O)(=O)N(C)C)cc3s2)cc(OC)c1OC | 21.2 | 0.92 µM [rising, full curve, poor fit] | –
24 | O=C(Nc1ccccc1Cl)Oc1ccc2ccccc2c1 | 12.4 | – | –
25 | C#CCNc1nc(CC)nc2c1nnn2Cc1ccccc1F | -13.6 | 0.231 µM [rising, full curve, poor fit] | –
26 | CCOC(=O)N1CCC(NC(=O)CN(c2ccc(C(C)C)cc2)S(=O)(=O)c2c(C)nn(C)c2C)CC1 | – | – | 0.92 µM [falling, full curve, poor fit]
27 | CCn1c(SCC(=O)Nc2nc(C)c(C)s2)nnc1-c1cccnc1 | – | 0.259 µM [rising, partial curve, poor fit] | 2.59 µM [rising, partial curve]
28 | c1ccc(Cn2nnnc2C(c2cccnc2)N2CCN(c3ccccc3)CC2)cc1 (configuration not stated) | 2.54 | 29.1 µM [falling, single point] | 0.259 µM [rising, full curve]
29 | C/C(=C\C(=O)c1ccc(Cl)cc1)NCc1ccc2c(c1)OCO2 | -16.6 | 0.0231 µM [falling, full curve] | –
30 | O=S(=O)(CCc1nc2ccccc2o1)c1ccc(Cl)c(Cl)c1 | -18.5 | – | 0.82 µM [falling, full curve, poor fit]
31 | O=C(NCC(c1cccnc1)N1CCOCC1)c1cccc(Cl)c1 (configuration not stated) | -13.4 | – | –
32 | CN1C(=O)S/C(=C/c2cccnc2)C1=O | 67.1 | – | 20.6 µM [rising, single point]
33 | COc1ccc(NC(=S)NC2CCCC2)c(OC)c1 | 32.4 | – | 4.61 µM [rising, full curve, poor fit]
34 | CCOC(=O)N1CCN(Cc2nc3ccc([N+](=O)[O-])cc3c(=O)n2-c2ccc(OC)cc2OC)CC1 | 21.4 | 1.03 µM [rising, partial curve] | –
35 | Cc1nc2sc(C(c3ccc(Br)cc3)N3CC(C)OC(C)C3)c(O)n2n1 (configuration not stated) | -196 | – | –
36 | CCC1Nc2ncnc(N3CCCCC3)c2N(Cc2ccc(Br)cc2)C1=O (configuration not stated) | 14.9 | 29.1 µM [rising, single point] | –
37 | COc1cc(Cl)c(C)cc1NC(=O)c1ccccc1NC(=O)CN1CCOCC1 | 38.2 | – | 5.8 µM [rising, full curve, poor fit]
38 | Cc1noc(C)c1C(=O)N(CC(=O)Nc1ccccc1Br)Cc1ccco1 | 7.36 | 13 µM [falling, partial curve] | –
39 | Cc1cc(C)n2nnnc2n1 | -42.9 | – | 18.4 µM [falling, single point]
40 | Cc1cc2c(C)nc(Cc3ccccc3)nc2o1 | – | – | 6.51 µM [falling, single point]
41 | CCc1ccccc1NC(=O)NC1CCCCCCC1 | -2.02 | 0.00461 µM [rising, full curve, poor fit] | –
42 | CC(=O)Nc1ccccc1OCC(=O)c1cc(C)n(Cc2cccs2)c1C | 17.6 | 1.3 µM [falling, partial curve, poor fit] | –

Row | SMILES | cell number change [%] | AC50 [1] | AC50 [2]
43 | CC(O)[C@H]1CNCCN1CCc1cccc(F)c1 (some centres not stated) | 20.3 | 5.8 µM [rising, full curve] | 0.461 µM [rising, full curve, poor fit]
44 | COc1ccc(NC(=O)[C@@H]2CCCN2C(=O)c2cccs2)cc1S(=O)(=O)N1CCCCC1 | -22.3 | 2.31 µM [rising, single point] | –
45 | CC1(NC(=O)CSc2nnc(-c3c[nH]c4ccccc34)n2C2CC2)CCS(=O)(=O)C1 (configuration not stated) | -8.55 | 5.8 µM [rising, single point] | –
46 | CCOC(=O)CSc1nnc(NC(=O)c2ccco2)s1 | 24.5 | – | –
47 | COC(=O)c1cc(S(=O)(=O)N2CCN(c3cccc(Cl)c3)CC2)c[nH]1 | 14.1 | 0.82 µM [falling, full curve, poor fit] | –
48 | CCCCCn1c2nc3ccccc3nc2c2c(=O)n(CC3CCCO3)c(C)nc21 (configuration not stated) | 12.8 | 29.1 µM [falling, single point] | –
49 | Cc1c(NC(=O)C(C)Sc2ncnc3ccccc23)c(=O)n(-c2ccccc2)n1C (configuration not stated) | 32.5 | – | 0.231 µM [rising, full curve]
50 | CCOC(=O)c1cnn(-c2ncnc3c2oc2ccccc23)c1N | 31.8 | 2.31 µM [rising, partial curve] | 0.366 µM [rising, full curve, poor fit]
51 | CC(C)C(c1nnnn1C1CCCCC1)N1CCOCC1 (configuration not stated) | -1.82 | 8.2 µM [falling, partial curve, poor fit] | –
52 | C=CCOc1ccc(Br)cc1CNCC | 14.7 | 29.1 µM [rising, single point] | –
53 | Cc1ccc(NC(=S)N(Cc2cccs2)Cc2cc3cc(C)ccc3[nH]c2=O)cc1 | -5.14 | 0.651 µM [rising, full curve] | –
54 | Cc1ccc(S(=O)(=O)N2CCOCC2)cc1NC(=O)c1cccc(S(=O)(=O)N2CCCC2)c1 | 32 | – | –
55 | Cc1cccc(NC(=S)NNC(=O)c2csc3c2CCC(C)C3)c1 (configuration not stated) | 9.22 | – | –
56 | Cc1cnc(C(=O)OC(C(=O)c2ccccc2)c2ccccc2)cn1 (configuration not stated) | -33.2 | 32.6 µM [falling, single point] | –
57 | CCOc1ccc(NC(=O)CN2CCN(CC(=O)Nc3ccc(N(C)C)cc3)CC2)cc1 | – | – | 2.91 µM [rising, partial curve]
58 | COC(=O)c1sc(NC(=O)CSc2nnnn2-c2cccc(OC)c2)nc1C | -15.5 | – | 6.51 µM [falling, single point]
59 | CCOc1ccc(NC(=O)CN2C(=O)NC(C)(c3ccc(OC(F)F)cc3)C2=O)cc1 (configuration not stated) | -5.86 | 0.58 µM [falling, single point] | –
60 | CN(C)/C=N/C(=S)Nc1ccc(Cl)c(Cl)c1 | 32.7 | – | 9.2 µM [rising, partial curve]
61 | CSc1ccccc1OCc1cc(C(=O)NC(C)CCn2cccn2)no1 (configuration not stated) | 7.8 | 29.1 µM [rising, single point] | –

Compounds from the list above that contain a thiophene ring, fused or not, in the order listed:
Row | SMILES | cell number change [%] | AC50 [1] | AC50 [2]
42 | CC(=O)Nc1ccccc1OCC(=O)c1cc(C)n(Cc2cccs2)c1C | 17.6 | 1.3 µM [falling, partial curve, poor fit] | –
44 | COc1ccc(NC(=O)[C@@H]2CCCN2C(=O)c2cccs2)cc1S(=O)(=O)N1CCCCC1 | -22.3 | 2.31 µM [rising, single point] | –
53 | Cc1ccc(NC(=S)N(Cc2cccs2)Cc2cc3cc(C)ccc3[nH]c2=O)cc1 | -5.14 | 0.651 µM [rising, full curve] | –
55 | Cc1cccc(NC(=S)NNC(=O)c2csc3c2CCC(C)C3)c1 (configuration not stated) | 9.22 | – | –
